According to PubChem BioAssay AID445 (National Center for Advancing Translational Sciences (NCATS), 2006):
This is one part of the list. Further columns of the screen follow, without active or inactive calls. Compounds called inactive in the main read-out are mostly missing here. The note in brackets gives the kind of curve behind each potency; many fits are weak.

Assay: IkB Signaling
Conditions: ABC-DLBCL IkBa-CBG/CBR dual luciferase ratio (green luciferase fused to IkBa over red control in OCI-Ly3 lymphoma cells), 4 h
In short: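 Luminescence ratio of IκBα-fused green versus native red beetle luciferase in OCI-Ly3 cells, 4 h post-doxycycline with compound; red signal alone, scaled from basal (0%) to zero light (-100%), flagged nonspecific or cytotoxic effects.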

[1] = measured here: control luc red channel unless noted

CCOc1ccc2nc(N(Cc3cccnc3)C(=O)C3CCCCC3)sc2c1
AC50 [1]: 39.8 µM [falling, single point]

Cc1cccc(N2CCN(C(=O)c3oc(=O)c4ccccc4c3-c3ccccc3)CC2C)c1 (stereo not given)
AC50 [1]: 7.94 µM [falling, full curve, poor fit]

COc1ccc(Cn2c(CCC(=O)Nc3ccc(C)cc3C)nc3cccnc32)cc1
AC50 [1]: 7.94 µM [falling, partial curve, poor fit]

CCCCOc1cc(C[C@@H]2CNC(=O)N2)ccc1OC
AC50 [1]: 10 µM [rising, full curve] [measured here: IkB-luc green channel]

Cc1ccc2c(nc3s/c(=C/c4cccs4)c(=O)n32)c1C
AC50 [1]: 0.126 µM [falling, full curve, poor fit]

Cc1oc2ccc(O)c(CN3CCN(C)CC3)c2c1C(=O)Nc1ccccc1
AC50 [1]: 3.16 µM [falling, partial curve, poor fit]

Cc1cccc(CSc2nc(=O)c3c(n2C)NC(=O)CC3c2cc(F)cc(F)c2)c1 (stereo not given)
AC50 [1]: 20 µM [falling, single point]

CCOC(=O)C1=C(CN2CCN(c3ccc(F)cc3)CC2)NC(=O)NC1c1cccs1 (stereo not given)
AC50 [1]: 39.8 µM [falling, single point]

CCc1ccccc1NC(=O)CSc1nnc(-c2ccc(OC)cc2)s1
AC50 [1]: 20 µM [rising, partial curve, poor fit]

CCOc1cccc2cc(C(=O)NCc3cccnc3)c(=O)oc12
AC50 [1]: 2.51 µM [falling, full curve]

Cc1cccn2c(N)c(-c3ccccc3)nc12
AC50 [1]: 20 µM [falling, partial curve]

CN(C)c1cccc(C(=O)Nc2nc3ccc(S(=O)(=O)N4CCCC4)cc3s2)c1
AC50 [1]: 15.8 µM [falling, partial curve]

O=C(Nc1ccc2c(c1)OCCO2)C1CCCN(S(=O)(=O)Cc2ccccc2)C1 (stereo not given)
AC50 [1]: 25.1 µM [falling, partial curve]

CCSc1ncc(Cl)c(C(=O)Nc2nc3ccc(Cl)cc3s2)n1
AC50 [1]: 2.51 µM [rising, partial curve]

COc1ccccc1-c1nnc(SCC(=O)NCc2c(C)c(Cl)cc(C(C)C)c2O)o1
AC50 (measured here: IkB-luc green channel): 20 µM [falling, partial curve, poor fit]
AC50 (measured here: control luc red channel): 25.1 µM [falling, partial curve]

O=C(Cn1c(=O)nc(-c2ccccc2)c2ccccc21)N1CCN(c2ccc(F)cc2)CC1
AC50 [1]: 39.8 µM [falling, single point]

COc1cc(OC)c(NC2=C(c3ccc(C(F)(F)F)cc3)C(=O)c3ccccc32)cc1Cl
AC50 [1]: 6.31 µM [falling, partial curve]

CC(C)Oc1ccccc1NC(=O)CSc1nccn1C
AC50 [1]: 39.8 µM [falling, single point]

O=C(O)CSc1nc2ccc(NC(=O)COc3ccc(Cl)cc3)cc2s1
AC50 [1]: 25.1 µM [falling, partial curve]

C#CCn1c(=O)n(-c2cccc(Cl)c2C)c(=O)c2c3c(sc21)CN(C(C)=O)CC3
AC50 [1]: 10 µM [falling, partial curve]

Cc1ccc(C)c(N2CCN(CCCNC(=O)c3cnn(-c4ccc(F)cc4)c3C3CCN(C(=O)OC(C)(C)C)CC3)CC2)c1
AC50 [1]: 10 µM [falling, partial curve]

CC(C)C(=O)Nc1nc2c(s1)CC(C(C)(C)C)CC2 (stereo not given)
AC50 [1]: 0.316 µM [rising, full curve]

COc1ccc(-c2cnc(C)o2)cc1S(=O)(=O)Nc1ccc(OC(F)(F)F)cc1
AC50 [1]: 20 µM [falling, partial curve]

O=C(COc1ccccc1)Nc1cccc(-c2nnc(-c3ccccc3)o2)c1
AC50 [1]: 10 µM [falling, partial curve]

CN(C(=O)CSc1nnc(COc2ccccc2)o1)c1ccccc1
AC50 [1]: 15.8 µM [falling, partial curve]

CCOc1ccc(OCC)c(NC(=O)c2cc3ccccn3n2)c1
AC50 [1]: 31.6 µM [falling, single point]

CCOC(=O)c1c(NC(=O)CSc2nnnn2C)sc(C)c1-c1ccc(C)cc1
AC50 [1]: 25.1 µM [falling, partial curve]

Cn1c(=O)c2c(nc(NCCCO)n2Cc2cccc(Br)c2)n(C)c1=O
AC50 [1]: 25.1 µM [falling, partial curve]

O=C(Nc1sc2c(c1C(=O)Nc1ccccc1)CCC2)c1ccc(Br)cc1
AC50 [1]: 0.501 µM [falling, full curve]

COC(=O)c1ccc(NC(=O)CSc2nnc3c4ccccc4n(C(C)C)c3n2)cc1
AC50 [1]: 25.1 µM [falling, partial curve]

CN1CCN(Cc2nc3c(c(=O)n(C)c(=O)n3C)n2Cc2ccccc2Cl)CC1
AC50 [1]: 15.8 µM [falling, partial curve]

Cc1ccc2c(=O)c(C(=O)c3ccc(F)cc3)cn(CC(=O)Nc3ccc4c(c3)OCCO4)c2n1
AC50 [1]: 25.1 µM [falling, single point]

Cc1ccccc1-c1cc(-c2ccccc2O)n[nH]1
AC50 [1]: 15.8 µM [falling, partial curve, poor fit]

O=C(CSc1nccn1C1CCCC1)Nc1cc(C(F)(F)F)ccc1Cl
AC50 [1]: 1 µM [falling, full curve, poor fit]

O=C(c1ccc2c(c1)N(Cc1ccccc1)C(=O)c1ccccc1S2(=O)=O)N1CCc2ccccc21
AC50 [1]: 12.6 µM [falling, partial curve, poor fit]

CCCNC(=O)CN1C(=O)COc2ccc(S(=O)(=O)N3CCC(C)CC3)cc21
AC50 [1]: 39.8 µM [falling, single point]

Cc1c(NC(=O)C(C)(C)Oc2ccc(Cl)cc2)cccc1-c1nc2ccccc2o1
AC50 [1]: 10 µM [falling, partial curve]

COc1cc2cc(CNc3ccccc3)c(=O)n(CC(=O)Nc3ccc(C)c(Cl)c3)c2cc1OC
AC50 [1]: 10 µM [falling, partial curve]

Cc1ccc(C)c(NC(=O)c2nnn(Cc3ccccc3)c2N)c1
AC50 [1]: 15.8 µM [falling, partial curve]
